Hit rate of the full screen: of about 220,000 compounds, about 770 (0.35%) were called active. The inconclusive results got no clear call from the source; some entries with a clear call stand among them for comparison. Rule as the data show it: active = binding response below about 49% or above about 150%; inconclusive = no clear call, values can overlap the other calls; inactive = in between.
target: Guanine nucleotide-binding protein G(o) subunit alpha (Homo sapiens) (UniProt P09471); assay: RGS7-Galphao binding modulators, primary screen, biochemical, multiplexed bead flow cytometry (AID 1439); settings: at 10 µM, actives lie on both sides;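 also: fluorescent Galphao held in activated GDP-AlF4 state binding bead-coupled RGS7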

The chains behind the UniProt entries cited, without tags or fusion partners.
UniProt P09471, whole entry, looked up: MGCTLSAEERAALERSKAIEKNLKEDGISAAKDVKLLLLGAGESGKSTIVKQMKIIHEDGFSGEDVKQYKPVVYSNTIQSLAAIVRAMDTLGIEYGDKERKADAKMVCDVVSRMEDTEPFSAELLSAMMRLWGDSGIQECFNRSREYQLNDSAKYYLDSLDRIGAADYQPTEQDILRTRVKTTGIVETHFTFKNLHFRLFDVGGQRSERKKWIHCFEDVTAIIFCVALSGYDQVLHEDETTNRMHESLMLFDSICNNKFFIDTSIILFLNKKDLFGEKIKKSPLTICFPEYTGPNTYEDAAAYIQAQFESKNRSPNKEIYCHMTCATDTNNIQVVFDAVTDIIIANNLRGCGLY

Structure (SMILES)	binding response (% of control)
C=CCN(C(=O)Nc1ccc2c(c1)nc(C)n2C)c1ccccc1	inconclusive: 77%
CCOC(=O)c1ccc(-c2ccc(/C=N/NC(=O)c3cncc(Br)c3)o2)cc1	inconclusive: 43.8%
COc1cc(CC(=O)OCn2nnc3ccccc3c2=O)cc(OC)c1OC	inconclusive: 121%
CS(=O)(=O)NNC(=O)c1csc(Cc2c(Cl)sc3ccc(Cl)cc23)n1	inconclusive: 109%
O=c1c2ccccc2c(C=Nc2ccc(O)cc2)c(O)n1-c1nccs1	inconclusive: 144%
CN(Cc1ccc(F)cc1)Cc1nc(-c2cnccn2)no1	inactive: 104%
Cc1ccc(Cl)cc1NC(=S)N(CCCN1CCN(C)CC1)Cc1cccs1	inconclusive: 113%
COc1ccc(NS(=O)(=O)c2ccc(O)c(C(=O)OCC(=O)NC(C)C3CC4CCC3C4)c2)cc1 (stereo not given)	inconclusive: 104%
COc1ccc(/C=N/NC(=O)Cn2cnc3c2c(=O)n(C)c(=O)n3C)c(OC)c1OC	inconclusive: -71.9%
CC1CN(C(=O)c2cccc(S(=O)(=O)Nc3ccc(Cl)cc3)c2)CC(C)O1 (stereo not given)	inconclusive: 113%
O=C(NC(=S)N1CCCCCC1)c1ccc(Cl)cc1Cl	inactive: 95.8%
Cc1cc(C(=O)CSc2nc(N)cc(=O)[nH]2)c(C)n1Cc1ccco1	inconclusive: 64.5%
COc1ccc(-c2cc(C(F)(F)F)n3ncc(C(=O)N(C)Cc4ccccc4)c3n2)cc1	inactive: 99.3%
O=C(O)c1ccccc1NC(=S)NC(=O)c1cccc2ccccc12	inconclusive: 134%
O=C(N/N=C/C(Br)=C\c1ccccc1)c1cccs1	inconclusive: 117%
O=C(NCCCNC(=O)c1ccccn1)c1ccccn1	inactive: 103%
COc1cccc(NC(=O)C2CC(=O)N/C(=N/NC(=O)c3ccc(C)cc3)S2)c1 (stereo not given)	inconclusive: 356%
CNC(=S)NNC(=O)c1cccn(Cc2ccccc2)c1=O	inconclusive: 83.7%
CC(C)c1csc2nc3n(c(=O)c12)CCCCC3	inconclusive: 108%
Cc1cc(C)nc(N/N=C/C2=C(O)CC(c3ccc(F)cc3)CC2=O)n1 (stereo not given)	inconclusive: 116%
CCOC(=O)c1c(-c2ccccc2)oc2ccc(O)c(CN(C)C)c12	inactive: 98.2%
CCN(CC)CCC(c1ccc2c(c1)OCO2)c1c(O)cc(OC)cc1OC (stereo not given)	inconclusive: 85.4%
O=C(COC(=O)c1ccco1)Nc1nc2ccc([N+](=O)[O-])cc2s1	inconclusive: 68.1%

Structure (SMILES)	binding response (% of control)
CN(C)S(=O)(=O)c1cccc(NC(=O)COC(=O)c2cc(=O)[nH]c(=O)[nH]2)c1	inconclusive: 83.9%
CC(C)Oc1cc(NC(=O)CS(=O)(=O)CC(=O)N(C)C)c(Cl)cc1Cl	inactive: 98.2%
O=C(CSc1ncnc2nc[nH]c12)Nc1ccc(Br)cc1Cl	inconclusive: 99.4%
CCN1CCN(Cc2ccc(NC(=O)c3ccc(C)c(NC(=O)C(=O)c4c[nH]c5ccccc45)c3)cc2C(F)(F)F)CC1	inconclusive: 114%
CCN1C/C(=C/c2ccc(OC)c(O)c2)C(=O)/C(=C/c2ccc(OC)c(O)c2)C1	inconclusive: 98.6%
OC(CNCc1ccccc1)c1ccccc1 (stereo not given)	inconclusive: 105%
O=c1c2ccccc2nnn1COc1cccc(Cl)c1	inconclusive: 93.7%
COc1cc2ccccc2nn1	inconclusive: 48.1%
CCCN1CN(c2ccccc2)C(=S)N(c2ccccc2)C1	inconclusive: 57.5%
O=C(O)CC1(CC(=O)NCc2csc(-c3cccs3)n2)CCCCC1	inconclusive: 90.3%
O=C(c1cccc(F)c1)N1CCN(C2CCCCC2)CC1	inactive: 94.5%
COc1ccc(Nc2nc(-c3ccc4c(c3)NC(=O)CO4)cs2)cc1	inconclusive: 72.2%
CCC1=C(OC(=O)N(CC)CC)N2C(=O)OC(=NCC3CC3)[C@]2(Cc2ccccc2)[C@H]2C1=CC[C@H]1C(=O)N(CC)C(=O)[C@H]12	inconclusive: 102%
COc1ccc(/C(C#N)=C/c2ccccn2)cc1	inconclusive: 66.4%
Cc1cc(C)nc(N/N=C/C2=C(O)CC(c3ccccc3)CC2=O)n1 (stereo not given)	inconclusive: 102%
Nc1cc(=O)[nH]c(SCC(=O)Nc2ncc(C(F)(F)F)cc2Cl)n1	inactive: 92.3%
COc1ccc(CC2(C)OC(c3ccc([N+](=O)[O-])cc3)=NN2C(C)=O)cc1 (stereo not given)	inconclusive: 50.7%
O/N=C/c1cn(-c2ccccc2)nc1-c1cccnc1	inconclusive: 72.5%
CC(C)(C)c1ncc(S(=O)(=O)c2ccc(C(F)(F)F)cn2)c(N)n1	inconclusive: 318%
CN(C)S(=O)(=O)c1cccc(NC(=O)COC(=O)COc2ccc(Br)cc2)c1	inconclusive: 104%
COc1ccccc1N1CCN(C(=O)CSc2nc(-c3ccccc3)cc(=O)[nH]2)CC1	inactive: 96.7%
N#C/C(=C\N1CCCCC1)S(=O)(=O)c1ccc(Cl)cc1	inconclusive: 119%
O=C(N/N=C/C=C\c1ccccc1[N+](=O)[O-])c1cccnc1	inconclusive: 92.1%

6 records drawn at random from those above, as already listed:
Structure (SMILES)	binding response (% of control)
O=C(O)CC1(CC(=O)NCc2csc(-c3cccs3)n2)CCCCC1	inconclusive: 90.3%
COc1cc2ccccc2nn1	inconclusive: 48.1%
Cc1cc(C)nc(N/N=C/C2=C(O)CC(c3ccccc3)CC2=O)n1 (stereo not given)	inconclusive: 102%
OC(CNCc1ccccc1)c1ccccc1 (stereo not given)	inconclusive: 105%
O=C(c1cccc(F)c1)N1CCN(C2CCCCC2)CC1	inactive: 94.5%
O=C(N/N=C/C=C\c1ccccc1[N+](=O)[O-])c1cccnc1	inconclusive: 92.1%

The list continues.

Structure (SMILES)	binding response (% of control)
CCCC1=NN(c2ccc([N+](=O)[O-])cc2)C(=O)/C1=C/N(C)C	inactive: 101%
COc1cccc(OCCCN2CCCCCC2)c1	inconclusive: 22.4%
FC(F)(F)c1nnc(N2CCN(c3ccc(Cl)cc3)CC2)s1	inconclusive: 122%
Cc1cc2nc(CS)[nH]c2cc1C	inconclusive: 93.6%
Cn1c(-c2cccs2)[n+](C)c2ccccc21	inactive: 104%
Nc1cc2c(cc1C(=O)c1ccccc1F)OCCO2	inconclusive: 74.9%
O=C(c1ccc(NC(=S)NCc2ccco2)cc1)N1CCOCC1	inactive: 98.7%
O=[N+]([O-])c1ccc(OCCOCCOc2ccc([N+](=O)[O-])cc2)cc1	inconclusive: 115%
O=C(c1ccc([N+](=O)[O-])cc1)N1CCN=C1SCc1ccccc1	inconclusive: 100%
COc1ccc2c(c1)c1ccc3c(c1n2C)C(=O)C=CC3=O	inconclusive: 152%
Cc1cccc(C)c1N1C(=O)CC(N2CCSCC2)C1=O (stereo not given)	inconclusive: 59%
Cn1cnc(NCc2ccccc2)c1[N+](=O)[O-]	inconclusive: 167%
CCOCCCNC(=O)c1ccccc1OC1CCN(S(C)(=O)=O)CC1	inactive: 100%
CC(=O)Nc1ccc(C(=O)OC2CCOC2=O)cc1 (stereo not given)	inactive: 97.3%
CCN(CC1COc2ccccc2O1)C(=S)NCCCN(C)C (stereo not given)	inconclusive: 92.1%
COc1cc(C(=O)NCCc2ccc(S(=O)(=O)N3CCCC3)cc2)cc(OC)c1OC	inactive: 107%
CNc1nc(Cl)nc(Nc2ccccc2)n1	inconclusive: 91.1%
CCOC(=O)c1nc(C)n(-c2ccc([N+](=O)[O-])cc2)n1	inconclusive: 102%
NC(=O)COC(=O)CC(c1ccccc1)c1ccccc1	inconclusive: 112%
CCCCN=C1CC(C)(C)CC(=O)/C1=C(/O)CCC	inconclusive: 21.3%
C=CCNC(=O)c1onc(CSc2cccc(C)c2)c1C(=O)O	inactive: 100%
Cc1c(N2C(=O)C3C4C=CC(C5CC45)C3C2=O)c(=O)n(-c2ccccc2)n1C (stereo not given)	inconclusive: 89.6%
CC(C(=O)N1CCOCC1)N1C(=O)c2cccc3cccc(c23)C1=O (stereo not given)	inconclusive: 89.5%

Structure (SMILES)	binding response (% of control)
CCC(Sc1nccn1C)C(=O)Nc1ccc(Cl)cn1 (stereo not given)	inactive: 105%
COCCCNC1=C(Cl)C(=O)c2ccccc2C1=O	inconclusive: 73.6%
O=C1N/C(=N\c2ccccn2)SC1Cc1ccc(Cl)cc1 (stereo not given)	inactive: 102%
COc1ccccc1Nc1c2c(nc3ccc(N)cc13)CCCC2	inconclusive: 94.7%
Cc1ccc(-c2cccc(C3CC=CC4C3C(=O)N(Cc3ccccc3)C4c3ccc(C(F)(F)F)cc3)c2)cc1 (stereo not given)	inconclusive: 126%
COC(=O)C1=C(C(=O)OC)C(c2cc([N+](=O)[O-])ccc2O)c2sc(=O)[nH]c2S1 (stereo not given)	inconclusive: 95%
CCCc1nn(C)c2c(=O)[nH]c(-c3cc(S(=O)(=O)Nc4ccc(NC(C)=O)cc4)ccc3OCC)nc12	inconclusive: 95.8%
CCOc1ccc(NS(=O)(=O)c2ccc3ncsc3c2)cc1	active: 152% [activator]
Cc1ccccc1SCC(=O)OCC(=O)Nc1ccc(N(C)C)cc1	inconclusive: 101%
Cc1c(NC(=O)C(C)N2C(=O)C3C4C=CC(C4)C3C2=O)c(=O)n(-c2ccccc2)n1C (stereo not given)	inactive: 102%
O=C1C(=O)c2ccccc2C(O)=C1CCCCl	inconclusive: 68.2%
Cc1cc(C)n(-c2cccc(Cl)c2C#N)n1	inconclusive: 93.4%
COc1cccc(OC)c1C(=O)NNC(=O)c1cccnc1	inconclusive: 93%
N#C/C(=C\c1ccccc1)C(=O)OCC(=O)N1CCCC1	inconclusive: 106%
Cc1nc(C(=O)N2CCc3c([nH]c4ccccc34)C2c2cc(F)ccc2F)cs1 (stereo not given)	inactive: 141%
Nc1nc(SCC(=O)NC2CCCC2)[nH]c(=O)c1NC(=O)c1cccs1	inconclusive: 40.3%
O=[N+]([O-])c1ccc(/C=C/C2=NN(c3ccccc3)C(c3ccco3)C2)cc1 (stereo not given)	active: 246% [activator]
O=C(CSc1nc2ncccc2[nH]1)c1ccc2c(c1)OCO2	inconclusive: 93.3%
C/C=C/C=C/C(=O)OCC(=O)Nc1ccc(Cl)cc1	inconclusive: 90.6%
CCC(C)NC(=O)c1ccc(C2SCC(=O)N2Cc2ccccc2)cc1 (stereo not given)	inactive: 102%
NNC(=O)c1cc(-c2ccc(N)cc2)nc2ccc(Br)cc12	inconclusive: -441%
